One substance from article PMC4603794 can be followed below.

Protein sequences, listed by entry. Tags and fused reporters are not part of them.
UniProt Q9LDI3: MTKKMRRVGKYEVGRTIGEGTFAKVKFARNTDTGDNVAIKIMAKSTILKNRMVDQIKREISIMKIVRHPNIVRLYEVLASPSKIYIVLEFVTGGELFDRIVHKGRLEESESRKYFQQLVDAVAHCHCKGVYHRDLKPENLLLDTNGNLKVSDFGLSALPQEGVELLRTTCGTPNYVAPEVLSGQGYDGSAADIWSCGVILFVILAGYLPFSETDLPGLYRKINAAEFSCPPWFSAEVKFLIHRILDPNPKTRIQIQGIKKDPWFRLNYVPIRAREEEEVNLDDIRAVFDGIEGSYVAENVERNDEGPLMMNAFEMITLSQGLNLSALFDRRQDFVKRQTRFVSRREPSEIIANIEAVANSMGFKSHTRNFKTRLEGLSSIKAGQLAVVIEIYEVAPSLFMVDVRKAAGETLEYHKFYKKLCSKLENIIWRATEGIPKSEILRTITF
UniProt O81445: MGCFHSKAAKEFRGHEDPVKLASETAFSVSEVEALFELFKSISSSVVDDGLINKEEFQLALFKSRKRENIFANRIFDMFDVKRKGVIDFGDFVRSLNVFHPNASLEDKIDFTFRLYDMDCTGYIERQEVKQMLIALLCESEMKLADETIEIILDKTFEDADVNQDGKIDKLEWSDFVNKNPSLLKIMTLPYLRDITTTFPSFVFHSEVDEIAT

For this assay, the target named is CIPK (CBL interacting protein kinase) 24 (UniProt Q9LDI3). The assay is described as follows: split reporter; BiFC with split SCFP in Nicotiana benthamiana leaf epidermal cells after agroinfiltration; CFP fluorescence by confocal microscopy 2 to 3 days after injection.

These are yes or no findings as the source states them, for the method shown. In cells and extracts the contact can be indirect. Some results given as binding are weak or reduced against the parent protein; the word gives no strength.

Regarding “calcineurin B-like protein (CBL) 1 (from UniProt O81445 1-213)”, the binding result is reported as “binds”.
